No constants are given. Whether binding was seen depends on the method and setting. Some entries that bind do so weakly or less than the wild type.
B1: mGluR5 Ab1 (antibody, V domains shown)
VH: QQQLEESGGGLVKPGGTLTLTCKVSGIDFSSYYYMCWVRQAPGKGLEWIACIYAGDGGTYYASWAKGRFTSSKTSSTTVTLQMTSLTAADTATYFCARGSGVGSYGYSLWGPGTLVTVSS
VL: DIVMTQTPASVEAAVGGTVTIKCQASESIYSNLAWYQQKPGQPPKLLIYRASNLESGVPSRFKGSGSGTEFTLTISDLECADAATYYCQGYYASTTTNAFGGGTEVVVKR
notes: Rabbit variable regions on human heavy and light chain constant regions (chimeric)
B2: mGluR5 Ab2 (antibody, V domains shown)
VH: QQQLEESGGGLVKPGGTLTLTCKASGIDFSGYYYMCWVRQAPGKGLEWIACVYTGDGGTYYASWAKGRFTISKTSSTTVTLQMTSLTAADTATYFCARGSGVGSYGYNLWGQGTLVTVSS
VL: DIVMTQTPASVEAAVGGTVTIKCQASESIYSNLAWYQQKPGQPPKLLIYRASNLESGVPSRFKGSGSGTEFTLTISDLECADAATYYCQGYYAITTTNAFGGGTEVVVKR
notes: as for B1
B3: mGluR5 Ab4 (antibody, V domains shown)
VH: QQQLEESGGGLVKPGGTLTLTCKGSGIDFNDYQYMCWVRQAPGKGLEWIACIYNGDGETYYAHWAKGRFTISKTSSTTVTLQMTSLTAADTATYFCARGSGVGSYGYNFWGPGTLVTVSS
VL: DIVMTQTPASVEAAVGGTVTIKCQASESIYSNLAWYQQKAGQPPKLLIYRASNLASGVPSRFKGSGSGTEFTLTISDLECADAATYYCQGYYASTVTNGFGGGTEVVVKR
notes: as for B1
B4: mGluR5 Ab5 (antibody, V domains shown)
VH: QEQLVESGGGLVQPEGSLTLTCTASGIDFSSGYFMCWVRQAPGKGLEWIACISPYSDNTWYANWAKGRFTISKTSSTTVTLQMTSLTAADTAAYRCARTMAIGAYNPFKLWGQGTLVTVSS
VL: ALVMTQTPSSVSAAVGGTVTINCQASQNIYSNLAWYQQKPGQRPKLLIYDASDLASGVSSRVKGSGSGTEFTLTISDLECADAATYYCQGYYSGNAFGGGTEVVVKR
notes: as for B1
B5: mGluR5 Ab6 (antibody, V domains shown)
VH: QSLEESGGRLVTPGGTLTLTCTVSGIDLSSYAMSWVRQAPGKGLEWIGIIYASGNTWYANWVKGRFTISKTSTTVDLKMTSPTTEDTATYFCARDSSATFNYLDLWGQGTLVTVSS
VL: AFHMTQTPASMEVAVGGTVTMKCQASESIDTYLNWYQQKPGQPPKLLIYQASKLASGVPSRFKGSGSGTEFTLTISGVECADAATYYCQQGWSTNDVDNVFGGGTEVVVKR
notes: as for B1
B6: mGluR5 Ab7 (antibody, V domains shown)
VH: QSVEESGGRLVTPGTPLTLTCTVSGFSLSRYAMGWVRHVPGKGLEWIGIIYASGSTYYASWAKGRFTISKTSTTVDLKITSPTTEDTATYFCARSRTATYDAVDPWGPGTLVTVSS
VL: AYDMTQTPASVSEPVGGTVTIKCQASQSISSYLSWYQQKPGQPPKLLIYEASTLASGVSSRFKGSGSGTEYTLTISDLECDDAAAYYCQQDLSGSNLDNSFGGGTEVVVKR
notes: as for B1
B7: mGluR5 Ab8 (antibody, V domains shown)
VH: QSVEESGGRLVTPGTPLTLTCSVSGIDLSSYAMSWVRQAPGKGLEWIGVIYASGSTYYASWAKGRFTISKTSTTVDLKITSPTTGDTATYFCVRDTTATYNYFNLWGQGTLVTVSS
VL: AYDMTQTPASVEVAVGGTATIKCQASQSIYNYLAWYQQKPGQPPKLLIYEASTLASGVPSRFKGSGSGTEFTLTISDLECADAATYYCQQSLSPSNVGRRVFGGGTEVVVKR
notes: as for B1
B8: mGluR5 Ab9 (antibody, V domains shown)
VH: QSVEESGGRLVTPGTPLTLTCTVSGFSLNNYAMNWIRQAPGKGLEWIGIIYGSGSTYYASWAKGRFTASKTSTTVDLKMTSLTTEDTATYFCARDELAAGINYFTLWGQGTLVTVSS
VL: ALVMTQTPASVEVAVGGTVTIKCQASQNIIDWCSWYQQKLGQPPKLLIYEASKLASGVPSRFKGSGSGTQFTLTISGVECADAATYYCQQGYSPSGVDNVFGGGTEVVVKR
notes: as for B1
B9: mGluR5 Ab10 (antibody, V domains shown)
VH: QSLEESGGRLVTPGTPLTLTCTVSGIDLSSYAVGWVRQAPGKGLEYIGIIYASGNTWYASWVKGRFTISKTSTTVDLKMTSLTTEDTATYFCARGHGATYDYFNLWGPGTLVTVSS
VL: AYDMTQTPASVEVAVGGTVTIKCQASQSISSWLAWYQQKPGQPPKLLIYDASDLASGVPSRFKGSGSGTEYTLTISGVQCDDAATYYCQQGLATANVDNVFGGGTEVVVKR
notes: as for B1
B10: mGluR5 Ab11 (antibody, V domains shown)
VH: QSLEESGGGLVKPGGTLTLTCTASGFSFSSSYWICWVRQAPGKGLEWIGCIYGSTDAYNANWAKGRFAISQTSSTTVTLQMTSLPAADTATYFCARHDGDIGWTLDLWGPGTLVTVSS
VL: AYDMTQTPASVEVAVGGTVTIKCQASLTIGTRLAWYQQKPGQPPKLLIYKASTLASGVSSRFKGSGSGTQFALTISDLECADAATYYCQQAAYVTDIDNAFGGGTEVVVKR
notes: as for B1
B11: mGluR5 Ab12 (antibody, V domains shown)
VH: QSVEESGGRLVTPGTPLTLTCTVSGIDLSSNAMGWVRQAPGKGLEWIGIIYASGNAWYANWVKGRFTISKTSTTVDLKITSPTTEDTATYFCARDATATWDYFNLWGQGTLVTVSS
VL: AYDMTQTPSSVSAAVGGTVTIKCQASQSISNWLSWYQQKPGQPPKLLIYRASTLASGVSSRFSGSGSGTEFTLTISDLECADAATYYCQQGYSVANVDNAFGGGTEVVVKR
notes: as for B1

These binders were tested against cynomolgus monkey mGluR5 extracellular domain (monkey-mGluR5-ECD) (cynomolgus monkey) (assay: HTRF, soluble ECD).
In the case of B1, the binding is reported as “binds”.
With B2 the binding was “binds”.
In the case of B3, the binding is reported as “binds”.
In the case of B4, the binding is reported as “binds”.
B5 was tested, and the binding was “binds”.
In the case of B6, the binding is reported as “binds”.
With B7 the binding was “binds”.
With B8 the binding was “binds”.
In the case of B9, the binding is reported as “binds”.
With B10 the binding was “binds”.
For B11, the binding was “binds”.
